The list shows a part of the results, in another mix than the full data.
What follows are targets tested with COC(=O)C#Cc1ccccc1 [methyl 3-phenylpropiolate] (assay: log2 ratio of iodoacetamide-alkyne labeling of the cysteine site, DMSO over compound (competition); higher = stronger covalent engagement of the cysteine by the compound, active = 1 or more). Settings: 500 µM; treatment time 1 h; system: HEK293T cell lysate.
How it was run: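 The log2 competition ratio per cysteine is defined as mean reporter intensity in control channels over mean reporter intensity in compound channels. Lysate from HEK293T cells (2 mg/mL) received electrophile (500 µM) or vehicle for 1 h at ambient temperature, followed by iodoacetamide alkyne for 1 h. Samples were clicked to sCIP-TMT reagents, pooled, trypsin-digested overnight at 37 °C, streptavidin-enriched, acid-eluted and run on Orbitrap Eclipse LC-MS/MS with FAIMS, with quantification in FragPipe. Three replicates with duplicate channels were used, and any cysteine quantified in only one replicate was excluded.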

Chains of the proteins cited; added tags and fusions are not shown. Lines headed by an entry give the natural chain unless they say otherwise; changes in a name come on top.
UniProt O43252: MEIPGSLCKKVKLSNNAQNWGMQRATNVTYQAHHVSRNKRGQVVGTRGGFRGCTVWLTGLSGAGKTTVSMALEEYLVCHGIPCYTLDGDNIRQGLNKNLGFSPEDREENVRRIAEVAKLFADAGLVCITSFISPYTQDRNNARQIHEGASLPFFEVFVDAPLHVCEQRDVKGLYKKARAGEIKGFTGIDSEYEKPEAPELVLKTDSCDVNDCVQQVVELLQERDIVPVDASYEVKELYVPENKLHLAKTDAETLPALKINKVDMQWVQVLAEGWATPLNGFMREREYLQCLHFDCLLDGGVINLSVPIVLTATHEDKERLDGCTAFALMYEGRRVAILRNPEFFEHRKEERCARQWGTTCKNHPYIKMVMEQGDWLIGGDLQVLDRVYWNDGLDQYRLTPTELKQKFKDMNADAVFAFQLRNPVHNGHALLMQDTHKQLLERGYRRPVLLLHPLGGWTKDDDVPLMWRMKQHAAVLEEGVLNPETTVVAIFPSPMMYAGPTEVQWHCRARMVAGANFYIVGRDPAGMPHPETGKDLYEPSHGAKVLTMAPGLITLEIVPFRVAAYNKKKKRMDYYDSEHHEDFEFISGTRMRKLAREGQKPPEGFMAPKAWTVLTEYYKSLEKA
UniProt O75376, whole entry, looked up: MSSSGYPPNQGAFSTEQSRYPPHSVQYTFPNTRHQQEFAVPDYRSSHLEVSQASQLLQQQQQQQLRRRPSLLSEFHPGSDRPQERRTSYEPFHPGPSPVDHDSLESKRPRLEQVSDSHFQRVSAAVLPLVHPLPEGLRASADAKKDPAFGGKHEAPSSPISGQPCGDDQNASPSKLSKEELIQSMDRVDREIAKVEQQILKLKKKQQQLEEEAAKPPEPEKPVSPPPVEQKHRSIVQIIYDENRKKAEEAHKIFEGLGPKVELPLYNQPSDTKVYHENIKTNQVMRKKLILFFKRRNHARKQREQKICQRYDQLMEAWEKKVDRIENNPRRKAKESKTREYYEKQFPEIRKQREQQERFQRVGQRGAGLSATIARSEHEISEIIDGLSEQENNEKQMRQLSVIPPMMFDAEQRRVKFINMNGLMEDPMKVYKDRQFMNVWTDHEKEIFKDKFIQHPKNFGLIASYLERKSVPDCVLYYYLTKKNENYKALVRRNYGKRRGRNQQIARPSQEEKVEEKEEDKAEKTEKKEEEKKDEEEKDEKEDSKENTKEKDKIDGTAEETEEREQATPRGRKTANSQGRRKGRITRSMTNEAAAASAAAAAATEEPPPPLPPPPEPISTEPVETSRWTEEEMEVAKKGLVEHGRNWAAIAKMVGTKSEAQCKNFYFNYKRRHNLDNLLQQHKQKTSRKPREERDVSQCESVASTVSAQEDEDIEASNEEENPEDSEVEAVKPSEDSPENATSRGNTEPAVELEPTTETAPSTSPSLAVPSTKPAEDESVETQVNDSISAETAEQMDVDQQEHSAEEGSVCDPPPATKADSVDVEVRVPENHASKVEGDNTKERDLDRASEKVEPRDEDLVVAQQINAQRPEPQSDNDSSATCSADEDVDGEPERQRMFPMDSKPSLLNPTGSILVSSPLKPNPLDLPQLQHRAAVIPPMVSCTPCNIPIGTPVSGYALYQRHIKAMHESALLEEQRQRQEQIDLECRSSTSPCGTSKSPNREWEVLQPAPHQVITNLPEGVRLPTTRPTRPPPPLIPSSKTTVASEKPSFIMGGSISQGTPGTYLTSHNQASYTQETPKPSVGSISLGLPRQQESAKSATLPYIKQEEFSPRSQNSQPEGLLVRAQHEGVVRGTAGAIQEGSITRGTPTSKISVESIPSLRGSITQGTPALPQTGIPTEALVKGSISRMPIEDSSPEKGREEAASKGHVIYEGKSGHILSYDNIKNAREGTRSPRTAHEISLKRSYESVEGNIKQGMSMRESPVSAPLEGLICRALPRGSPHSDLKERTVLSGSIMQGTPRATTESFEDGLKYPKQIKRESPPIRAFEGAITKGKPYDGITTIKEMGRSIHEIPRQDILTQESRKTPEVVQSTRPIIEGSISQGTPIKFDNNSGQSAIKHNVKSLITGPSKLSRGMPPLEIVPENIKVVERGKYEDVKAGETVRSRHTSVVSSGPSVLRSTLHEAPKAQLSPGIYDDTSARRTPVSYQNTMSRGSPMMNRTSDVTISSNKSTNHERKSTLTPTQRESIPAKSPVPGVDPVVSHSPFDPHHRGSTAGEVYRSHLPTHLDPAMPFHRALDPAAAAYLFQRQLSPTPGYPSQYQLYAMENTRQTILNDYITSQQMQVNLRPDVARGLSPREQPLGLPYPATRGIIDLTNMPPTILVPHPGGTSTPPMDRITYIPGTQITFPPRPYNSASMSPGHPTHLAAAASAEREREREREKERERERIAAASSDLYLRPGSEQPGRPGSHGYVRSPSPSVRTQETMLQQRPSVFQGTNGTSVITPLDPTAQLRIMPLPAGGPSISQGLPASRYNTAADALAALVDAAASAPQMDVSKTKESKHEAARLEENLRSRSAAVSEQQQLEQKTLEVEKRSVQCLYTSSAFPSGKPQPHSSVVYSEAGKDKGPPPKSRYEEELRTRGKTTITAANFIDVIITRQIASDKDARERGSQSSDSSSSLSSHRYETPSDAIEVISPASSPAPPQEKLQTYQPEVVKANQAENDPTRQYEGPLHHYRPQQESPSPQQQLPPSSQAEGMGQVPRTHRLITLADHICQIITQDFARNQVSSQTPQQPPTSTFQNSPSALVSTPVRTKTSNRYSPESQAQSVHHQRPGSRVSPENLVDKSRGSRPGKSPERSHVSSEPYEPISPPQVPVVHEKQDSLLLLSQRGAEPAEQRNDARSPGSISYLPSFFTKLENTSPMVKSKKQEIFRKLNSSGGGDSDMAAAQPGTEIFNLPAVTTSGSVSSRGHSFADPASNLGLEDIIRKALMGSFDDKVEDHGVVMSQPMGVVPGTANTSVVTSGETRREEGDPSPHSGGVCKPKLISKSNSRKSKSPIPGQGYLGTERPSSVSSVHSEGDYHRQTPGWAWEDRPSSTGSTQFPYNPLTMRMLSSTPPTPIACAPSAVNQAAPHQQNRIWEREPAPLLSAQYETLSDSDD
UniProt O75439: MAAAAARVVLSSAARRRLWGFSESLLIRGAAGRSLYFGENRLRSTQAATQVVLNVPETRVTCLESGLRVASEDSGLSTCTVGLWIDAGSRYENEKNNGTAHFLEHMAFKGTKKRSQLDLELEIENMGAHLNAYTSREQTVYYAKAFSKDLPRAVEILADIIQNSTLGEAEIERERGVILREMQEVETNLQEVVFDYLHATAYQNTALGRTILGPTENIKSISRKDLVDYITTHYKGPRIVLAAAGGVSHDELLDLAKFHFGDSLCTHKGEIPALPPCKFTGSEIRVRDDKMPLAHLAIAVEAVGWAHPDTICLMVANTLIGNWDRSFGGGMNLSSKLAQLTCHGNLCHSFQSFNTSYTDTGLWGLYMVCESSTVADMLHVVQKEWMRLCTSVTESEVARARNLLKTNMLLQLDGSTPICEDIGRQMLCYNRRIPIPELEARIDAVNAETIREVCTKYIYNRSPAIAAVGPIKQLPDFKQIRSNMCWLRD
UniProt O43823: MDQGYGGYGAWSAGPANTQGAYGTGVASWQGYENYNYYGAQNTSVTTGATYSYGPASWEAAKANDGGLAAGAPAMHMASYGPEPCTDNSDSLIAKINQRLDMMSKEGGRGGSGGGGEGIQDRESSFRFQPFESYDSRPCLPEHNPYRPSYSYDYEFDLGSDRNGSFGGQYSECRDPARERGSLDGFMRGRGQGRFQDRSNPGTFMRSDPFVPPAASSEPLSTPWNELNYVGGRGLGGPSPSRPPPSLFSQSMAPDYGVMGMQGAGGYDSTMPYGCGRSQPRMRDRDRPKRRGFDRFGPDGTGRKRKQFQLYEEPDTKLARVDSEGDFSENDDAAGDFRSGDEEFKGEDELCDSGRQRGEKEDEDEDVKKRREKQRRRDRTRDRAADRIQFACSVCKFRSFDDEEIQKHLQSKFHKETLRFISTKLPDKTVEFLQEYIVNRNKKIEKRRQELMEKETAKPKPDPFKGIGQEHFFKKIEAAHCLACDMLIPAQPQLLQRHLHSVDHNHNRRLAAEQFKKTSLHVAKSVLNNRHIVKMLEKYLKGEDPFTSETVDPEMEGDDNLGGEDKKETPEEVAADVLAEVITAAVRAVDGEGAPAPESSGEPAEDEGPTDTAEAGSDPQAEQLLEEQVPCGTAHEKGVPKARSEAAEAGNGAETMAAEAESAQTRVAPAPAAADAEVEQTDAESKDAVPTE
UniProt O75832: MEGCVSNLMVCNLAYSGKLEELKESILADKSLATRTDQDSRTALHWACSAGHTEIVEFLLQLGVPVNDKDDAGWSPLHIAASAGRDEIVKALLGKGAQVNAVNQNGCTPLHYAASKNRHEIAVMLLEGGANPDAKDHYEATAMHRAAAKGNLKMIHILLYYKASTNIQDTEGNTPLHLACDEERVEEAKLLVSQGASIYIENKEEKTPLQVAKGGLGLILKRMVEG
UniProt O43242, whole entry: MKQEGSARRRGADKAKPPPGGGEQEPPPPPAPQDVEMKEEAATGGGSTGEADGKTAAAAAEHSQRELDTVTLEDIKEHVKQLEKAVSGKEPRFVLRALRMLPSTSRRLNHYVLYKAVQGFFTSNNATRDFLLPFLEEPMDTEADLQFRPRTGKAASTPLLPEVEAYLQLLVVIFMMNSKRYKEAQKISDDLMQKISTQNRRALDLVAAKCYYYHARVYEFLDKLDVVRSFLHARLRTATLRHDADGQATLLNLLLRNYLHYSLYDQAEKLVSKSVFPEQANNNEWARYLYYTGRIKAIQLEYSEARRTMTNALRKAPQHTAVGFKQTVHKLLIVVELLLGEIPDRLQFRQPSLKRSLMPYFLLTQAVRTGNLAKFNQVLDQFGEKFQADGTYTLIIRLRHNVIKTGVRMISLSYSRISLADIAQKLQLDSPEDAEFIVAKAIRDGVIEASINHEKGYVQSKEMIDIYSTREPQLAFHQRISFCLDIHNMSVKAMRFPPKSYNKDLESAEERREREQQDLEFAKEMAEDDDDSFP
UniProt O75663: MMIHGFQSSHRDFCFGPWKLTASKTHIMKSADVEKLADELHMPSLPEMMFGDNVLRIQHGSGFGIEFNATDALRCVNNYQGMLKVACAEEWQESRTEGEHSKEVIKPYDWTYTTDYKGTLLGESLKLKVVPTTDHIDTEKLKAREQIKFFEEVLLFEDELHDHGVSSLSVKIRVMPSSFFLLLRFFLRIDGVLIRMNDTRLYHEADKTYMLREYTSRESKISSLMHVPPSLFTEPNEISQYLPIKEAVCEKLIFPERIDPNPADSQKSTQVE
UniProt O43513: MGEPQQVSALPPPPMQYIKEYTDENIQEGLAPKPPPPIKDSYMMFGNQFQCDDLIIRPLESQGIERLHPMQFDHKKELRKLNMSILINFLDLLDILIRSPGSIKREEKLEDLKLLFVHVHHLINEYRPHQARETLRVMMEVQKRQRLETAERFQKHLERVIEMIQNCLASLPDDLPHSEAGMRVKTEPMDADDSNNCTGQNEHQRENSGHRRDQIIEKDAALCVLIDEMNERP
UniProt O60763: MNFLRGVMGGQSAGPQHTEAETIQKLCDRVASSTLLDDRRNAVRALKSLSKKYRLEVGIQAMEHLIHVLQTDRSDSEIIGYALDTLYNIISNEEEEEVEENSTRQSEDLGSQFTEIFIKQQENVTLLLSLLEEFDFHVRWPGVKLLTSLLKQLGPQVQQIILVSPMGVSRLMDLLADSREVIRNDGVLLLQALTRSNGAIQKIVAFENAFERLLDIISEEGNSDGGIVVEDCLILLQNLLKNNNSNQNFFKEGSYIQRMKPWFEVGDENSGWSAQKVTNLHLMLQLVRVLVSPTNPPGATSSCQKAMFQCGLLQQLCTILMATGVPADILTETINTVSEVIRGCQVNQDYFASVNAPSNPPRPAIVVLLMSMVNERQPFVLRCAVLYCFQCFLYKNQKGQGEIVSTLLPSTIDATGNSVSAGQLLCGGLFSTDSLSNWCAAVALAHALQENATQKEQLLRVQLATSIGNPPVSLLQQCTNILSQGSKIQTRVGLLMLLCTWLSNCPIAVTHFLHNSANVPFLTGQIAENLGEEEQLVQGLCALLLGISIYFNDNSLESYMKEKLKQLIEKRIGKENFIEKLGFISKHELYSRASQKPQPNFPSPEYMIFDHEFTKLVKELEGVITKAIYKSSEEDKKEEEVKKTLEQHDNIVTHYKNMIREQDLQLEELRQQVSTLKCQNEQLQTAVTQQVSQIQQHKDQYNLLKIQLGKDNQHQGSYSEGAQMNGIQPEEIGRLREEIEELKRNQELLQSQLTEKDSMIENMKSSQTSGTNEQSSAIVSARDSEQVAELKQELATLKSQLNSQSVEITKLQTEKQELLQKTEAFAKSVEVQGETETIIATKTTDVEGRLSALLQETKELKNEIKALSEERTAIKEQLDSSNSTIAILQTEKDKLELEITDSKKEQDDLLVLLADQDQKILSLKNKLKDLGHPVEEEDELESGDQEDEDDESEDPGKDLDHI

log2 ratio of iodoacetamide-alkyne labeling, inactive:
UniProt O43679_C207 0.392
SORBS3 C521 (UniProt O60504) 0.124
PAPSS1 C360 (UniProt O43252) 0.982
RRP9 C399 (UniProt O43818) 0.297
ROCK2 C330 (UniProt O75116) 0.0935
KIF1B C66 (UniProt O60333) 0.257
XPOT C650 (UniProt O43592) 0.0949
TADA2A C20 (UniProt O75478) 0.0236
H2AFY C297 (UniProt O75367) 0.405
NCOR1 C2056 (UniProt O75376) 0.386
RSL1D1 C211 (UniProt O76021) 0.0138
NCOR1 C2322 (UniProt O75376) 0.378
KIN C212 (UniProt O60870) 0.348
PMPCB C265 (UniProt O75439) -0.317
EIF5B C720 (UniProt O60841) 0.266
AKAP8 C85 (UniProt O43823) 0.633
PSMD10 C107 (UniProt O75832) -0.0397
UniProt O43776_C438 0.348
PRC1 C322 (UniProt O43663) 0.255
ANKRD17 C210 (UniProt O75179) 0.398
PRC1 C132 (UniProt O43663) -0.0971
ZW10 C650 (UniProt O43264) 0.214
AQR C681 (UniProt O60306) 0.372
UniProt O75164_C533 0.679
FLNB C991 (UniProt O75369) 0.0508
PSMD3 C483 (UniProt O43242) 0.233
UniProt O43929_C16 0.153
PSIP1 C204 (UniProt O75475) 0.31
SF3B1 C933 (UniProt O75533) 0.276
SRGAP2 C820 (UniProt O75044) 0.721
TIPRL C14 (UniProt O75663) 0.121
AQR C28 (UniProt O60306) 0.104
MED7 C223 (UniProt O43513) 0.124
SART1 C645 (UniProt O43290) 0.0232
ZFAND5 C76 (UniProt O76080) 0.28
GPC4 C408 (UniProt O75487) 0.49
USO1 C27 (UniProt O60763) 0.239

3 successive entries from above:
log2 ratio of iodoacetamide-alkyne labeling, inactive:
FLNB C991 (UniProt O75369) 0.0508
PSMD3 C483 (UniProt O43242) 0.233
UniProt O43929_C16 0.153

— the supplement of paper PMC11006884
